Some results were stated once for a whole list of compounds, not compound by compound.
Assays:
c-Kit WT = c-Kit WT (UniProt P05532); experiment: Ex vivo TK inhibition assay, proliferation ([3H] thymidine) of Ba/F3 kit cells; settings: read-out: IC50 c-Kit WT
c-Kit JM Δ27 = c-Kit JM Δ27 (Mus musculus, UniProt P05532); experiment: Ex vivo TK inhibition assay, proliferation ([3H] thymidine) of Ba/F3 mkitΔ27 cells; settings: read-out: IC50 c-Kit JM Δ27; juxtamembrane deletion

IC50 (c-Kit WT) [µM]	IC50 (c-Kit JM Δ27) [µM]	Structure (SMILES)
< 10	< 1	Cc1ccc(NC(=O)c2ccc(CN3CCN(C)CC3)cc2)cc1Nc1nc(-c2ccc(C#N)cc2)cs1 [Compound 081, N-{3-[4-(4-Cyano-phenyl)-thiazol-2-ylamino]-4-methyl-phenyl}-4-(4-methyl-piperazin-1-ylmethyl)-benzamide]
< 10	< 1	COc1ccc(NC(=O)Nc2ccc(C)c(Nc3nc(-c4cccnc4)cs3)c2)cc1 [Compound 009, 1-(4-Methoxy-phenyl)-3-[4-methyl-3-(4-pyridin-3-yl-thiazol-2-ylamino)-phenyl]-urea]
< 10	< 1	CCOC(=O)c1csc(Nc2cc(NC(=O)c3ccc(CN4CCN(C)CC4)cc3)ccc2C)n1 [Compound 008, 2-{2-Methyl-5-[4-(4-methyl-piperazin-1-ylmethyl)-benzoylamino]-phenylamino}-thiazole-4-carboxylic acid ethyl ester]
< 10	< 1	COc1ccc(NC(=O)Nc2ccc(C)c(Nc3nc(-c4cccnc4)cs3)c2)c(OC)c1 [Compound 017, 1-(2,4-Dimethoxy-phenyl)-3-[4-methyl-3-(4-pyridin-3-yl-thiazol-2-ylamino)-phenyl]-urea]
< 10	< 1	Cc1ccc(NC(=O)Nc2ccc(Br)cc2)cc1Nc1nc(-c2cccnc2)cs1 [Compound 010, 1-(4-Bromo-phenyl)-3-[4-methyl-3-(4-pyridin-3-yl-thiazol-2-ylamino)-phenyl]-urea]
< 10	< 1	Cc1ccc(NC(=O)c2ccc(CN(C(C)C)C(C)C)cc2)cc1Nc1nc(-c2cccnc2)cs1 [Compound 072, 4-[(Diisopropylamino)-methyl]-N-[4-methyl-3-(4-pyridin-3-yl-thiazol-2-ylamino)-phenyl]-benzamide]
< 10	< 1	Cc1ccc(NC(=O)c2cccc(N3CCOCC3)c2)cc1Nc1nc(-c2cccnc2)cs1 [Compound 090, N-[4-Methyl-3-(4-pyridin-3-yl-thiazol-2-ylamino)-phenyl]-3-morpholin-4-yl-benzamide]
< 10	< 1	Cc1ccc(NC(=O)c2ccc(CN3CCN(C)CC3)cc2)cc1Nc1nc(-c2cccc([N+](=O)[O-])c2)cs1 [Compound 117, N-{4-Methyl-3-[4-(3-nitro-phenyl)-thiazol-2-ylamino]-phenyl}-4-(4-methyl-piperazin-1-ylmethyl)-benzamide]
< 10	< 1	COc1cccc(C(=O)Nc2ccc(C)c(Nc3nc(-c4cccnc4)cs3)c2)c1 [Compound 059]
< 10	< 1	Cc1ccc(NC(=O)c2cc(Br)c(CN3CCN(C)CC3)c(Br)c2)cc1Nc1nc(-c2cccnc2)cs1 [Compound 067, 3,5-Dibromo-4-(4-methyl-piperazin-1-ylmethyl)-N-[4-methyl-3-(4-pyridin-3-yl-thiazol-2-ylamino)-phenyl]-benzamide]
< 10	< 1	Cc1ccc(NC(=O)C2CCC(C(C)(C)C)CC2)cc1Nc1nc(-c2cccnc2)cs1 (stereo not drawn) [Compound 095, 4-tert-Butyl-cyclohexanecarboxylic acid [4-methyl-3-(4-pyridin-3-yl-thiazol-2-ylamino)-phenyl]-amide]
< 10	< 1	Cc1ccc(NC(=O)c2ccc(OS(=O)(=O)c3ccc(I)cc3)cc2)cc1Nc1nc(-c2cccnc2)cs1 [Compound 043, 4-Iodo-benzenesulfonic acid 4-[4-methyl-3-(4-pyridin-3-yl-thiazol-2-ylamino)-phenylcarbamoy]-phenyl ester]

— patent US20110201620A1, “2-(3-AMINOARYL) AMINO-4-ARYL-THIAZOLES AND THEIR USE AS C-KIT INHIBITORS” (AB SCIENCE, priority 2002, published 2011)
